Measurements as given in patent US11311522B1 (Cavion, Inc., priority 2018, dated 2022).
Some of these results come from one statement about several compounds together.

How the values were obtained:
CYP3A4 = CYP3A4 induction in primary human hepatocytes; assay type: in vitro ADME; conditions: 10 μM
[1] = molecular target: T1, human pregnane X receptor (PXR) (Homo sapiens, UniProt O75469); assay: Human PXR activation; assay type: in vitro ADME; conditions: 10 μM
T1 sequence (O75469 1-434): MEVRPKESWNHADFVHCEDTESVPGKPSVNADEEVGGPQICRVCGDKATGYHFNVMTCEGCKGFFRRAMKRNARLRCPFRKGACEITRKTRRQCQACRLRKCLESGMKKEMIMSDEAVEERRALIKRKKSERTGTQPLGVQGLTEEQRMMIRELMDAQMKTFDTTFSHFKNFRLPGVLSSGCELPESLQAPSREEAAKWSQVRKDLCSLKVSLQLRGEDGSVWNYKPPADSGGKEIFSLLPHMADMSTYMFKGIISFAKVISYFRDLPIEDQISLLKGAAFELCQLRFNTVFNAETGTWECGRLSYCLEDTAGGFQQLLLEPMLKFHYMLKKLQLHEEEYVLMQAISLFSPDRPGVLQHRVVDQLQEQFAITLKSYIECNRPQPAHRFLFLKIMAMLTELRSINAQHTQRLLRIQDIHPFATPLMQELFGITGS

With CC(C)c1ccc(CC(=O)N[C@H](C)c2ccc(OCC(F)(F)F)cn2)cc1 [CX-8998] the “Induction of CYP3A4 mRNA or activity, % of control effect” value (from here on “Induction … % of control effect”) (CYP3A4) was ≤ 10%.

C=C(C)c1ccc(CC(=O)N[C@H](C)c2ccc(OCC(F)(F)F)cn2)cc1 [M01] was tested, and the “Induction … % of control effect” value (CYP3A4) was ≤ 10% and the “Activation of human PXR, % of control effect” value [1] was ≤ 34%.

C[C@@H](NC(=O)Cc1ccc(C(C)(C)O)cc1)c1ccc(OCC(F)(F)F)cn1 [M02] was tested, and the “Induction … % of control effect” value (CYP3A4) was ≤ 10% and the “Activation of human PXR, % of control effect” value [1] was ≤ 34%.
